In one data set the test system is OVA-specific IgE. Nature of the data set: OVA-specific IgE by ELISA. The format is in vivo, mouse. As to conditions: tocopherols administered after sensitization phase. (An ELISA detects its analyte on a solid surface through an enzyme-linked reagent.)
In data set [1] the test system is IL-4, IL-5, IFNγ and IL-2. Put plainly: BAL cytokines IL-4, IL-5, IFNγ, IL-2 (Th1/Th2 CBA kit). As to conditions: tocopherols after antigen sensitization, before challenge.
The next data set deals with mHEVa endothelial cells. Put plainly: Tocopherol concentration in mHEVa endothelial cells after in vitro treatment. To be noted: 18 hours.

Turning to `Cc1c(C)c2c(c(C)c1O)CC[C@@](C)(CCC[C@H](C)CCC[C@H](C)CCCC(C)C)O2` [α-tocopherol, d-α-tocopherol, reference compound], the “OVA-specific serum IgE” value in the data set on OVA-specific IgE is listed as “no effect”. Moreover, the BAL cytokines entry in data set [1] was “did not alter”. For the same compound, the “Endothelial cell concentration of α-tocopherol” value with mHEVa endothelial cells (80 μM α-tocopherol in culture medium) is recorded as “five fold”.
Turning to `Cc1c(O)cc2c(c1C)O[C@](C)(CCC[C@H](C)CCC[C@H](C)CCCC(C)C)CC2` [γ-tocopherol, d-γ-tocopherol], the “OVA-specific serum IgE” value in the data set with OVA-specific IgE was “no effect”. Also, the BAL cytokines entry in data set [1] is listed as “did not alter”. Besides, the “Endothelial cell concentration of γ-tocopherol” value with mHEVa endothelial cells (5 μM γ-tocopherol in culture medium, to that in lung tissue of tocopherol-treated mice) is “raised”.

These data come from patent US20100076072A1, “COMPOSITIONS AND METHODS OF VITAMIN E ADMINISTRATION” (NORTHWESTERN UNIVERSITY, priority 2008, published 2010).
